# Laboratory results: PubChem BioAssay AID504467 (National Center for Advancing Translational Sciences (NCATS), 2011)
# The whole screen tested about 330,000 compounds, of which about 7,700 (2.3%) were called active. The inconclusive results got no clear call from the source; some entries with a clear call stand among them for comparison. The call rests on the fitted dose curve; in most records, active means well fitted inhibition curve with a large enough effect; inconclusive means small, poorly fitted or top-dose-only effect, or effect the other way; inactive means flat fitted curve, though single readings scatter. Potencies beside an inconclusive call are fits to weak or partial responses and may not hold up.
# Test: qHTS screen for small molecules that inhibit ELG1-dependent DNA repair in human embryonic kidney (HEK293T) cells expressing luciferase-tagged ELG1; further: nearly all actives have a fitted effect of over 55% in size
# Conditions: HEK293T ELG1-luciferase reporter, luminescence, 16 h, DNA damage induced by 5-fluorouridine; activity change, negative = inhibition: at 46.1 µM (top of the series)
# Outline: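 In this reporter screen, reduction of luminescence relative to DMSO vehicle indicated activity. Compounds and 5-fluorouridine were added together to 2,000 cells per well, incubated for 16 hr at 37 °C, then developed with ONE-Glo.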
# On the % scale 0 is the no-effect control and ±100 the full control effect; potency means the concentration at half of the fitted maximal effect.
Structure (SMILES),Potency,"activity change, negative = inhibition"
O=C(OCc1nnc(-c2ccc(Cl)cc2)o1)C12CC3CC(CC(O)(C3)C1)C2,"inconclusive: 29.1 µM [activator, single point]",–
CN(C)Cc1c(O)ccc2c(-c3ccccc3)cc(=O)oc12,"inconclusive: 29.1 µM [inhibitor, partial curve, poor fit]",–
O=C(/C=C/c1cccs1)N1CCN(c2ccccc2)CC1,"inconclusive: 23.1 µM [activator, partial curve, poor fit]",–
O=C(O)CSCC(=O)c1ccccc1,"inconclusive: 32.6 µM [inhibitor, partial curve, poor fit]",–
O=C(CSc1ccc(F)cc1)N1CCC(c2nc3ccccc3s2)CC1,"inconclusive: 0.231 µM [inhibitor, partial curve, poor fit]",–
CC1Cc2nc(SCC(=O)Nc3ccc4c(c3)OCO4)n(CCc3ccccc3)c(=O)c2S1 (configuration not stated),active: 13 µM,–
CCOC(=O)c1c(C)c(C(=O)Nc2ccc3c(c2)OCCO3)c(C)n1C,"inconclusive: 11.6 µM [activator, partial curve, poor fit]",–
O=c1[nH]c(C2CCN(S(=O)(=O)c3ccc(C(F)(F)F)cc3)CC2)nc2c1nnn2Cc1ccccc1,"inconclusive: 18.3 µM [inhibitor, partial curve]",–
CC1CC(C)CN(C(=O)CSc2ncnc3sccc23)C1 (configuration not stated),–,inactive: 5.25%
O=c1oc2c(O)cccc2cc1-c1nc2ccccc2[nH]1,"inconclusive: 1.46 µM [activator, full curve]",–
COC(=O)N/N=C(\C)c1ccc(Br)cc1,"inconclusive: 16.4 µM [activator, single point]",–
O=C(C[n+]1ccccc1)Nc1ccccc1C(F)(F)F,–,inactive: -4.94%
CN(Cc1ccccc1F)C(=O)CCNC(=O)c1ccc(C(C)(C)C)cc1,"inconclusive: 20.6 µM [activator, single point]",–
Cc1ccccc1C(=O)Nc1cccc(-c2ccc(N3CCOCC3)nn2)c1,"inconclusive: 7.3 µM [activator, single point]",–
COc1ccc(NC(C)=O)cc1NC(=O)C1CCN(C(=O)Nc2ccccc2)CC1,–,inactive: 13.6%
Cc1ccc2nc3c(cc2c1)c(NC(=O)C1CCCO1)nn3CC(C)C (configuration not stated),"inconclusive: 20.6 µM [inhibitor, single point]",–
N#CC1(NC(=O)CN2C(=O)NC(Cc3c[nH]c4ccccc34)C2=O)CCCCC1 (configuration not stated),–,inactive: -0.482%
COc1ccc(NC(=O)CSc2nccc(C)n2)cc1,"inconclusive: 2.59 µM [activator, partial curve, poor fit]",–
CC(=O)c1sc(NC(=O)COc2ccc([N+](=O)[O-])cc2)nc1C,–,inactive: -5.46%
CSc1cccc(NC(=S)N(Cc2ccccc2)Cc2cccnc2)c1,"inconclusive: 0.82 µM [inhibitor, partial curve, poor fit]",–
CCSc1nsc(NC(=O)Nc2cccc(F)c2)n1,"inconclusive: 20.6 µM [activator, single point]",–

Structure (SMILES),Potency,"activity change, negative = inhibition"
COc1ccc(/C=N/NC(=O)c2ccc3c(c2)NC(=O)C(C)(C)O3)cc1OC,"inconclusive: 16.4 µM [inhibitor, single point]",–
COc1cccc(NC(=O)Nc2nnc(Cc3ccccc3)s2)c1,–,inactive: 1.1%
COc1ccc(OCc2nc(N)nc(Nc3ccccc3)n2)cc1,"inconclusive: 8.2 µM [activator, partial curve, poor fit]",–
CCCOc1ccc(N2CC(C(=O)NC(C)C)CC2=O)cc1 (configuration not stated),"inconclusive: 0.082 µM [inhibitor, full curve, poor fit]",–
CCC(C)c1ccc(C(CC)NC(=O)C2CCCO2)cc1 (configuration not stated),"inconclusive: 32.6 µM [inhibitor, partial curve, poor fit]",–
COc1ccc(C(=O)N2C(=O)c3ccc(N)cc3C2=O)cc1,"inconclusive: 5.17 µM [activator, partial curve]",–
CCOc1ccc(CCNC(=O)CCCn2c(=O)c3cccn3c3cccnc32)cc1OCC,"inconclusive: 6.51 µM [inhibitor, full curve, poor fit]",–
Cc1ccc(Cl)cc1NC(=O)[C@@H]1CCC(=O)N1C1OC(=O)c2ccccc21 (some centres not stated),–,inactive: 20.2%
C=CCSc1nnc(N2C(=O)C(O)=C(C(=O)c3ccco3)C2c2ccccc2F)s1 (configuration not stated),"inconclusive: 2.06 µM [activator, partial curve, poor fit]",–
CCN(C(=O)COC(=O)c1cc(=O)c2ccccc2o1)c1c(N)n(Cc2ccccc2)c(=O)[nH]c1=O,–,inactive: 15.9%
Cc1oncc1-c1cn2ccccc2n1,"inconclusive: 18.4 µM [activator, partial curve, poor fit]",–
Cc1ccc(NC(=O)c2cc(=O)c3ccccc3o2)cc1,"inconclusive: 16.4 µM [activator, partial curve]",–
N#C/C(=C\c1cn(-c2ccccc2)nc1-c1ccccc1)S(=O)(=O)c1ccccc1,"inconclusive: 8.2 µM [activator, partial curve]",–
Cc1nc(-c2cc(-c3ccc(Cl)cc3)no2)cs1,"inconclusive: 4.61 µM [activator, partial curve]",–
CCc1ccc(C(=O)COC(=O)C(Cc2ccccc2)NC(=O)C2CCC(C)CC2)cc1 (configuration not stated),"inconclusive: 1.78 µM [activator, full curve]",–
COC(=O)CCNCCSc1nnc(-c2ccco2)n1Cc1ccccc1,–,inactive: -6.83%
Cc1ccc(NC(=O)c2ccc3c(c2)C(=O)N(Cc2cccnc2)C3=O)c(C)c1,–,inactive: 8.89%
CC(C)CCNC(=O)NC(=O)COC(=O)c1cc(S(=O)(=O)N2CCOCC2)ccc1N1CCCCC1,"inconclusive: 13 µM [inhibitor, partial curve]",–
Cc1cccc(N=Nc2c(C)nn(-c3ccccc3)c2N)c1C,"inconclusive: 9.2 µM [activator, single point]",–
Cc1ccc2nc(NS(C)(=O)=O)sc2c1,"inconclusive: 20.6 µM [activator, single point]",–
C[C@H](CO)N1C[C@H](C)[C@@H](CN(C)Cc2ccncc2)Oc2ccc(NC(=O)Cn3cnnn3)cc2C1=O,"inconclusive: 16.4 µM [activator, single point]",–

# Record cards, from the list above. Order of values: Potency	activity change, negative = inhibition
# CCOc1ccc(CCNC(=O)CCCn2c(=O)c3cccn3c3cccnc32)cc1OCC as listed: inconclusive: 6.51 µM [inhibitor, full curve, poor fit]	–
# COc1ccc(/C=N/NC(=O)c2ccc3c(c2)NC(=O)C(C)(C)O3)cc1OC as listed: inconclusive: 16.4 µM [inhibitor, single point]	–
# CC(C)CCNC(=O)NC(=O)COC(=O)c1cc(S(=O)(=O)N2CCOCC2)ccc1N1CCCCC1 as listed: inconclusive: 13 µM [inhibitor, partial curve]	–
